# Results are given in words; binding and its absence hold for the method and conditions named. Some binding calls cover weakened binding; strength is not graded here. For some of these results: Where a sequence is shown, tags or fusion partners need not be part of it.
# T1: two-component response regulator YxdJ (Bacillus subtilis) (UniProt P42421)
# T1 sequence: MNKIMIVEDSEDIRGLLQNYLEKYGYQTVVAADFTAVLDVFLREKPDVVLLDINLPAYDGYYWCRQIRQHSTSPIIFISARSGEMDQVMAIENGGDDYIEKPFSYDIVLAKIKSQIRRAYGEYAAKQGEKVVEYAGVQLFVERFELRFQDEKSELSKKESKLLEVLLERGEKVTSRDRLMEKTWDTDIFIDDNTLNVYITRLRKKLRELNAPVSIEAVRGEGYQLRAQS
# T2: sensory histidine kinase DegS (Bacillus subtilis) (UniProt P13799)
# T2 sequence: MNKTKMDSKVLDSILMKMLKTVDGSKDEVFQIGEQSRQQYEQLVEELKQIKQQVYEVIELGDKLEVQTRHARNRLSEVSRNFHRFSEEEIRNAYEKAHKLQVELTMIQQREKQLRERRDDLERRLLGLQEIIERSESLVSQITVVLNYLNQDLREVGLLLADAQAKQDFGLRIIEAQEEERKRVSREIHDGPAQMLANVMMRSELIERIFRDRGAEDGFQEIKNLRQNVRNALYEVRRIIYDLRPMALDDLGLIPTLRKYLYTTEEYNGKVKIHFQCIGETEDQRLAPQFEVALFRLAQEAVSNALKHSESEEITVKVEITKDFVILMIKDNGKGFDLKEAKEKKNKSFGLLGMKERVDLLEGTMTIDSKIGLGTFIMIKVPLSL
# T3: two-component-like kinase RsbT (Bacillus subtilis) (UniProt P42411)
# T3 sequence: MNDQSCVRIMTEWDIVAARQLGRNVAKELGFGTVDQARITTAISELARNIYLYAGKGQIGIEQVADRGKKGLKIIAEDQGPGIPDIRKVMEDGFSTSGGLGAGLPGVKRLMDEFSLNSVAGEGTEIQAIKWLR
# Tests used:
# [1] = molecular target: T1, two-component response regulator YxdJ (Bacillus subtilis); test: two-hybrid; yeast two-hybrid, data not shown; which partner was bait is not told
# [2] = molecular target: T2, sensory histidine kinase DegS (Bacillus subtilis); test: as above
# [3] = molecular target: T3, two-component-like kinase RsbT (Bacillus subtilis); test: two-hybrid; yeast two-hybrid; bait as Gal4 BD fusion (pGBDU), prey as Gal4 AD fusion (pGAD); haploid cells of complementary mating types mixed in a 96 wells format; growth of diploids on selective media depleted for histidine
binding [1],binding [2],binding [3],Binder
binds,–,–,"phosphotyrosine-protein phosphatase YwlE (enzyme, UniProt P39155 1-150) MDIIFVCTGNTCRSPMAEALFKSIAEREGLNVNVRSAGVFASPNGKATPHAVEALFEKHIALNHVSSPLTEELMESADLVLAMTHQHKQIIASQFGRYRDKVFTLKEYVTGSHGDVLDPFGGSIDIYKQTRDELEELLRQLAKQLKKDRR"
–,binds,–,"Hanks-type serine/threonine kinase YabT (enzyme, UniProt P37562 1-338) MMNDALTSLACSLKPGTTIKGKWNGNTYTLRKQLGKGANGIVYLAETSDGHVALKVSDDSLSITSEVNVLKSFSKAQSVTMGPSFFDTDDAYIPSANTKVSFYAMEYIKGPLLLKYVSDKGAEWIPVLMIQLLSSLSVLHQQGWIFGDLKPDNLIVTGPPARIRCIDVGGTTKEGRAIKEYTEFYDRGYWGYGTRKAEPSYDLFAVAMIMINSVHKKEFKKTNQPKEQLRSLIEGNPLLQKYKKALFSALNGDYQSADEMKKDMLDAGQKAAQRKQPIKASPQPATRQRQQKPRQGKITKTRYTPKQKPAKSGGLFETTLIVISVLALYFAYIIFFLI"
–,binds,binds,"Hanks-type kinase PrkD (enzyme, UniProt O31435 1-256) MALKLLKKLLFDRPLKNGVILNHQYKIEECLGMGGYGLVYLCTDILAQTPYVLKQLRPTKAKKEKEKVRFQQEIKLLKNIHHPQIPGFIDEFIIDGQAYYVMQFIEGENIEELLFFRKQPFTELMALQLISQLLEIIEYLHDRLIFHSDIRTPNIIINDGRLCLIDFGLAKQLTPEEMEEIKVRKQDDFFDLGETLLFLLYSQYKGKKKKNGTWLEELTLTKEVTLLLKRLLGIEEEYQHTASIREDLNRAIQSVT"

# From publication PMC4166321
